In the supplement of paper PMC12819154, “High-throughput peptide-centric local stability assay extends protein–ligand identification to membrane proteins, tissues and bacteria” (Nature Structural & Molecular Biology, 2025):
Some of the results follow. Small differences around the control level are noise.

Chains of the proteins cited; added tags and fusions are not shown. Lines headed by an entry give the natural chain unless they say otherwise; changes in a name come on top.
UniProt Q8WUF8: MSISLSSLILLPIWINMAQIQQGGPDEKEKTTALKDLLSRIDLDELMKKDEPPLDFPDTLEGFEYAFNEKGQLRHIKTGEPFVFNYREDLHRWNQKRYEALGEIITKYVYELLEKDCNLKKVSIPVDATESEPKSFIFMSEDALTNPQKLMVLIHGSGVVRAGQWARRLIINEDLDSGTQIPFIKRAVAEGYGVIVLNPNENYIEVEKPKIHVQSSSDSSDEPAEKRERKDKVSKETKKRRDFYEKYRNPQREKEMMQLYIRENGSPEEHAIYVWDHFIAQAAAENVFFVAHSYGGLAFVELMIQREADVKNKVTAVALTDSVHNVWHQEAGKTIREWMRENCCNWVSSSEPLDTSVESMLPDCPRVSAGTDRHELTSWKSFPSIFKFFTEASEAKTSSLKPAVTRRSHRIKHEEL
UniProt Q8TC07: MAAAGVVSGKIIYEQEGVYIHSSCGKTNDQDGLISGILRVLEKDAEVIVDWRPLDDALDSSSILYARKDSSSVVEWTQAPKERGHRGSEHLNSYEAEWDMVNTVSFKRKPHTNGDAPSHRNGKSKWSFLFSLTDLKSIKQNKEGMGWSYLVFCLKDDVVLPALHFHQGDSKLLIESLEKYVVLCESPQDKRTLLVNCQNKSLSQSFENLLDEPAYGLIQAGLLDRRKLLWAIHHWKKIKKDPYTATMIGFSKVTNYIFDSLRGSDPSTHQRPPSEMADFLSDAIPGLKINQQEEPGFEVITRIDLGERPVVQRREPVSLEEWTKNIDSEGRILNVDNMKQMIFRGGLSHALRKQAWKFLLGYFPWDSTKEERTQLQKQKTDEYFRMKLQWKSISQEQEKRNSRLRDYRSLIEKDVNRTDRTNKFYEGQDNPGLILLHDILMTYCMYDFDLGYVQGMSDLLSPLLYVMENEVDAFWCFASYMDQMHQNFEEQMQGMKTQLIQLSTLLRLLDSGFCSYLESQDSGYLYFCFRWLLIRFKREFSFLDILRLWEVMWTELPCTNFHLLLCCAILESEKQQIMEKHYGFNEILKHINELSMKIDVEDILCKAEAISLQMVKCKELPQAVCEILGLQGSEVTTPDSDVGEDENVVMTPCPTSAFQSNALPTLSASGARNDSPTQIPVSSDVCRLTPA
UniProt Q8TD26: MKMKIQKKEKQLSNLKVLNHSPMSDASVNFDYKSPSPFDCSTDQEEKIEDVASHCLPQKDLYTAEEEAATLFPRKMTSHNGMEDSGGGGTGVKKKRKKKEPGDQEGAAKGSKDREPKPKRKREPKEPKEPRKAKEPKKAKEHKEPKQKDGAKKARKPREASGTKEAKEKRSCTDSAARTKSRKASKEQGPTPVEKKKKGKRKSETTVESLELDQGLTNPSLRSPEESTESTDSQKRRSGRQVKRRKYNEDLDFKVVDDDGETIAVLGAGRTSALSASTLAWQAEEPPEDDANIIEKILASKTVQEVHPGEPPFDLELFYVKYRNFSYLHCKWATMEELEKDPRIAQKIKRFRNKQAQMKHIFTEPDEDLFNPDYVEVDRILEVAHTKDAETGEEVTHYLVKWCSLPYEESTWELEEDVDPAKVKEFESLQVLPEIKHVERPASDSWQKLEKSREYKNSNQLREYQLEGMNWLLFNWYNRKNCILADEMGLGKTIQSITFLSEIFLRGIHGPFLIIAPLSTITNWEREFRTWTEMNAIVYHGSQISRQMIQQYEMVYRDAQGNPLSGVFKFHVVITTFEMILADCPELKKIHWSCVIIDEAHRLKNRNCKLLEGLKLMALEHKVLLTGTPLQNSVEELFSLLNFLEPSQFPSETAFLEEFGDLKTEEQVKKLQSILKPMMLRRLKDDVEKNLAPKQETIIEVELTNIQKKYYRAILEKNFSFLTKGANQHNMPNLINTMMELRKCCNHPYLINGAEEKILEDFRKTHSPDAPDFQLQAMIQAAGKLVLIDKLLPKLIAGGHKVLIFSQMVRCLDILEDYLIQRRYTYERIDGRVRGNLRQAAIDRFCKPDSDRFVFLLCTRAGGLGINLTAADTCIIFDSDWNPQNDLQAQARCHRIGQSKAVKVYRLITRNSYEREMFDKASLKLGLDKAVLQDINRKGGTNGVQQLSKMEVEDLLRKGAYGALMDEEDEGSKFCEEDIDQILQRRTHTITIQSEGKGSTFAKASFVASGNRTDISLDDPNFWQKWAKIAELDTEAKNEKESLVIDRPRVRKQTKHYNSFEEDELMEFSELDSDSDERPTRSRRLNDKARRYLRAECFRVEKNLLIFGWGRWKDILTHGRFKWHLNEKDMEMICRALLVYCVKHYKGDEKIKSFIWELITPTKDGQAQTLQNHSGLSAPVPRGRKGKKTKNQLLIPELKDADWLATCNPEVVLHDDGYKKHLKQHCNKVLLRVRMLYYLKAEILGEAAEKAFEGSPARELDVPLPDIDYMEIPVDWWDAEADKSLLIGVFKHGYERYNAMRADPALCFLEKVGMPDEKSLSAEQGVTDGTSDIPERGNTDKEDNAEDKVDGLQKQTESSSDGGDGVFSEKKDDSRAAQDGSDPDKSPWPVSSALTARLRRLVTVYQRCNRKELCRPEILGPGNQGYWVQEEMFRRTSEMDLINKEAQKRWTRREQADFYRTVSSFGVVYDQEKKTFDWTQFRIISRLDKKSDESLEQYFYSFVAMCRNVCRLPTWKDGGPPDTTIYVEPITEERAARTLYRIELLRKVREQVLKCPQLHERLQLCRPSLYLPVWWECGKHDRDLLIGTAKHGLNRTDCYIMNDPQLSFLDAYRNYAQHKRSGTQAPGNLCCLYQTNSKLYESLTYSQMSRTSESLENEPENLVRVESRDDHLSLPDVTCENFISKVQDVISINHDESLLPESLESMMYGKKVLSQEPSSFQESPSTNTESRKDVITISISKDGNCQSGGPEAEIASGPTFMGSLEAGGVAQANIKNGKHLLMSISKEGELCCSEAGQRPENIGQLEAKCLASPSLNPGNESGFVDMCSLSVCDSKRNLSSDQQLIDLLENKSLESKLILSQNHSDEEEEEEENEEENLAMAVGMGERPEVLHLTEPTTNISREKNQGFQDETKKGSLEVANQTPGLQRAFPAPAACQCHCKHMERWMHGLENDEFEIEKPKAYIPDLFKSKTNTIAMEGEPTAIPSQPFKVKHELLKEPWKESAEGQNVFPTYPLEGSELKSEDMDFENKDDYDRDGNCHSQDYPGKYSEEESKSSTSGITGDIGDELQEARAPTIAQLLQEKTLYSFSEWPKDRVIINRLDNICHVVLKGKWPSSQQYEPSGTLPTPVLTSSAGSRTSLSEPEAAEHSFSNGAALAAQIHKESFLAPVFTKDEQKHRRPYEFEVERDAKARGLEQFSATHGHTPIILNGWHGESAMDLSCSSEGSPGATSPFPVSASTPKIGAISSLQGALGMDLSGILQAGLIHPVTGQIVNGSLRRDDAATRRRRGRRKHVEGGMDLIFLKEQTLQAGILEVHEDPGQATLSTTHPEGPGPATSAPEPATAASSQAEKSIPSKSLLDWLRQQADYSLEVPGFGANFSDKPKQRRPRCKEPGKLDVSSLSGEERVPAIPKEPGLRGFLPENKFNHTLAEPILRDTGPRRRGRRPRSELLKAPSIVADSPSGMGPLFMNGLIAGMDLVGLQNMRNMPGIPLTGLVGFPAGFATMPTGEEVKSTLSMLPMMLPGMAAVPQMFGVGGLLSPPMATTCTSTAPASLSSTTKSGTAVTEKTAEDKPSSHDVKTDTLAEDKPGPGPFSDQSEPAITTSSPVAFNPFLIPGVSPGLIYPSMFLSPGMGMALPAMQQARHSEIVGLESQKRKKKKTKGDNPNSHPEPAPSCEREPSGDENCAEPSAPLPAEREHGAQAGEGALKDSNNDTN
UniProt Q8WVP7: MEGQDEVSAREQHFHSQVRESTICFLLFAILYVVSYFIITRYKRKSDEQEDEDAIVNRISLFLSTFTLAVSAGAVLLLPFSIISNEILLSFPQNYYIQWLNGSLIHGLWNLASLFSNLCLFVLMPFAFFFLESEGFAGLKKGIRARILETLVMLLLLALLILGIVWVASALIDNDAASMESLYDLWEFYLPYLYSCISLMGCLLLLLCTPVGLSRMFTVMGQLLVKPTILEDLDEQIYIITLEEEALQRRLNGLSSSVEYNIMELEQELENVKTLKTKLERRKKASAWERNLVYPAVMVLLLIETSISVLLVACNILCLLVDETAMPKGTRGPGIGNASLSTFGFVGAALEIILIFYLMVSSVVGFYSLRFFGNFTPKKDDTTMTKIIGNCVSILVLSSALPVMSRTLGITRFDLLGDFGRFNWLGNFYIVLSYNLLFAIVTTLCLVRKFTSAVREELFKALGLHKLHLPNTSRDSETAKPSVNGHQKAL
UniProt Q8WUM4: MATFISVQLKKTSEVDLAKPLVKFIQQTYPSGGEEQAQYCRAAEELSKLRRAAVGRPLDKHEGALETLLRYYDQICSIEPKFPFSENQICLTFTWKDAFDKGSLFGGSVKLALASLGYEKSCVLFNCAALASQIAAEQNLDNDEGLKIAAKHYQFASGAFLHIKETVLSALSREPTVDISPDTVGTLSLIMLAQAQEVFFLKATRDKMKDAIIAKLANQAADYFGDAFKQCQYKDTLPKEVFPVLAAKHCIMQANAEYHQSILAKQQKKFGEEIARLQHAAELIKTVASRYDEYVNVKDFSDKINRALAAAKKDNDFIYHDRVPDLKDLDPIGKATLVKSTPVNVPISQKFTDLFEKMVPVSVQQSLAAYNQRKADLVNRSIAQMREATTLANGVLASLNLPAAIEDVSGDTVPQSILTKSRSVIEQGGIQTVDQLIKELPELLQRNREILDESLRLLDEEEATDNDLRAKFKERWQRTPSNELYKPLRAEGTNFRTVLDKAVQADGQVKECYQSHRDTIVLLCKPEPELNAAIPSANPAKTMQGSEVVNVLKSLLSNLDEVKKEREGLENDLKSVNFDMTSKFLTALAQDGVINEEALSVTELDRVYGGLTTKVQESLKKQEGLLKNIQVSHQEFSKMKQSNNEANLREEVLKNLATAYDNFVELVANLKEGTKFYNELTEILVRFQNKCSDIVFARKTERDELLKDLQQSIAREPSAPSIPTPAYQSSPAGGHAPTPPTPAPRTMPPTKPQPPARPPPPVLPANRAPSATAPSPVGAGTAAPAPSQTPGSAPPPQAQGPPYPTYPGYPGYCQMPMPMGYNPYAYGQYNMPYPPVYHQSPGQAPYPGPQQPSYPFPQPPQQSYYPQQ
UniProt Q8TBF2: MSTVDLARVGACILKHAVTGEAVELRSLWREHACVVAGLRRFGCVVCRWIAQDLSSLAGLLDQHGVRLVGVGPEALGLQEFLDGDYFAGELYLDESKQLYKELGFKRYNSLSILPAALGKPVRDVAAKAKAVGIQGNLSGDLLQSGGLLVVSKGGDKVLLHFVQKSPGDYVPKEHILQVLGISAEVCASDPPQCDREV
UniProt Q8WYL5: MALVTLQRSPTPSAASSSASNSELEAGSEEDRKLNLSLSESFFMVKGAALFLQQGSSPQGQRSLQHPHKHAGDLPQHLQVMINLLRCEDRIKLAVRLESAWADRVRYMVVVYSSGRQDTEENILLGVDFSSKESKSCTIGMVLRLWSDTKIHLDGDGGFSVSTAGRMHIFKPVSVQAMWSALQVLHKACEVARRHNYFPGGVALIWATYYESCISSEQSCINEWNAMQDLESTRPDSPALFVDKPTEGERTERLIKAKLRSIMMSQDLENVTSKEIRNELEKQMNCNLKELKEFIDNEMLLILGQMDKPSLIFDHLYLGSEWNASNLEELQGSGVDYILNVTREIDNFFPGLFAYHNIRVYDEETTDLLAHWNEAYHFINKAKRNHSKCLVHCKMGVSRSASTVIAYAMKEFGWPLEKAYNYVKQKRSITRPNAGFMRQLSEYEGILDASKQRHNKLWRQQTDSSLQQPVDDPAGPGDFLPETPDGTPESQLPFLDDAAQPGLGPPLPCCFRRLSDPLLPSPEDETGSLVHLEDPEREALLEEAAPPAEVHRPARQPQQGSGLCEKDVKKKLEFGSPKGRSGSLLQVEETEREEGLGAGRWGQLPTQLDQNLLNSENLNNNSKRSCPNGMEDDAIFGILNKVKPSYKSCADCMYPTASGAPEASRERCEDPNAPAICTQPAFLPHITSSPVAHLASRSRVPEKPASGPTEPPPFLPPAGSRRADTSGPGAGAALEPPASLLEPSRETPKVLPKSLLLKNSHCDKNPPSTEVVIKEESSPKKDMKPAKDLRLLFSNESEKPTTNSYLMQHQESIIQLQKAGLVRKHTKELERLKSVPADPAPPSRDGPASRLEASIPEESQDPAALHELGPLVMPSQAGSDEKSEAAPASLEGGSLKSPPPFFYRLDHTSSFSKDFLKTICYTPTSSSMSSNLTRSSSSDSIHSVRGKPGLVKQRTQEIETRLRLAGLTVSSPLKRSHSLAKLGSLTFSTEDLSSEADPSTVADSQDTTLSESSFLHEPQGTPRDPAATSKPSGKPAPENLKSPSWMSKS
UniProt Q8WUD4: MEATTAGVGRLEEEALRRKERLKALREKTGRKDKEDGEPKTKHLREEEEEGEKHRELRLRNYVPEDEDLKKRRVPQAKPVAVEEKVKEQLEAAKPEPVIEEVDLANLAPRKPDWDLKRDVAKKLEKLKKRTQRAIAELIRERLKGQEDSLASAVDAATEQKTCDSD

The targets below were run with Cc1nc(Nc2ncc(C(=O)Nc3c(C)cccc3Cl)s2)cc(N2CCN(CCO)CC2)n1 [dasatinib] (assay: log2 fold change of tryptic peptide abundance, ligand vs vehicle (limited proteolysis) (log2 ratio); higher = more trypsin-susceptible (destabilized)). Conditions: ligand concentration: 5 uM; sample: K562 cleared lysate.

| Target | log2 fold change |
| --- | --- |
| FAM172A (peptide sequence: TGEPFVFNYR, peptide start residue: 78) (UniProt Q8WUF8) | -0.727 |
| UniProt Q8TDF6 (peptide sequence: AQVLDKFIHVAQR, peptide start residue: 268) | -0.479 |
| TBC1D15 (peptide sequence: YVVLCESPQDKR, peptide start residue: 180) (UniProt Q8TC07) | -0.301 |
| UniProt Q8TA94 (peptide sequence: AFSYHHSFQSR, peptide start residue: 149) | -0.699 |
| UniProt Q8WVR3 (peptide sequence: VLVVEPVK, peptide start residue: 573) | -0.144 |
| USP33 (peptide sequence: SRPGSVVPTTLFQGIK, peptide start residue: 243) (UniProt Q8TEY7) | 0.218 |
| SLC35F5 (peptide sequence: FHDLPSEKPESTNIDTEKTPK, peptide start residue: 170) (UniProt Q8WV83) | -0.836 |
| UniProt Q8TD17 (peptide sequence: STYADEELVIK, peptide start residue: 255) | 0.0366 |
| METTL6 (peptide sequence: LGENFYVR, peptide start residue: 206) (UniProt Q8TCB7) | -0.109 |
| CHD6 (peptide sequence: ESFLAPVFTKDEQK, peptide start residue: 2163) (UniProt Q8TD26) | -0.411 |
| UniProt Q8TAT5 (peptide sequence: TTNDITQPSSK, peptide start residue: 436) | 0.291 |
| NUDT8 (peptide sequence: LAGLTCSGAEGLARPK, peptide start residue: 202) (UniProt Q8WV74) | 0.223 |
| LMBR1 (peptide sequence: DSETAKPSVNGHQK, peptide start residue: 475) (UniProt Q8WVP7) | 0.731 |
| PDCD6IP (peptide sequence: KTSEVDLAKPLVK, peptide start residue: 11) (UniProt Q8WUM4) | -0.14 |
| TBC1D22A (peptide sequence: LSWSGIPKPVRPMTWK, peptide start residue: 218) (UniProt Q8WUA7) | 0.252 |
| ARHGEF40 (peptide sequence: ALGAAVQLLR, peptide start residue: 1235) (UniProt Q8TER5) | -0.299 |
| PPIL4 (peptide sequence: EQDKPPNLVLK, peptide start residue: 342) (UniProt Q8WUA2) | -0.244 |
| TBC1D5 (peptide sequence: SMIEQDVKR, peptide start residue: 161) (UniProt Q92609) | -0.276 |
| DLG5 (peptide sequence: DAGPQGLHPSVQHQGR, peptide start residue: 1215) (UniProt Q8TDM6) | -0.564 |

| Target | log2 fold change |
| --- | --- |
| PIK3R3 (peptide sequence: TAIEAFNETIK, peptide start residue: 479) (UniProt Q92569) | 0.0935 |
| RGP1 (peptide sequence: LMAATSCR, peptide start residue: 202) (UniProt Q92546) | 0.415 |
| UniProt Q8TBF2 (peptide sequence: EHACVVAGLR, peptide start residue: 31) | 0.688 |
| PTCD2 (peptide sequence: SHTLLLNK, peptide start residue: 363) (UniProt Q8WV60) | 0.398 |
| DIS3L (peptide sequence: DYVVTFPSKEEVQSQGK, peptide start residue: 344) (UniProt Q8TF46) | -0.625 |
| PPM1E (peptide sequence: RRPQLYYETSIHAIK, peptide start residue: 224) (UniProt Q8WY54) | 0.258 |
| CEP76 (peptide sequence: GIIDDVMK, peptide start residue: 60) (UniProt Q8TAP6) | -0.141 |
| RASSF5 (peptide sequence: LSIADRPLYLR, peptide start residue: 335) (UniProt Q8WWW0) | -0.149 |
| UniProt Q8WYL5 (peptide sequence: EIRNELEK, peptide start residue: 275) | -0.0986 |
| DENND1A (peptide sequence: KTPELGIVPPPPIPRPAK, peptide start residue: 706) (UniProt Q8TEH3) | -0.544 |
| BCL7C (peptide sequence: KVMATIEK, peptide start residue: 20) (UniProt Q8WUZ0) | -0.177 |
| SLC9A6 (peptide sequence: ELAFGDHELVIR, peptide start residue: 632) (UniProt Q92581) | 0.00479 |
| SMAP2 (peptide sequence: LEPVVFEK, peptide start residue: 153) (UniProt Q8WU79) | -0.0796 |
| GRPEL2 (peptide sequence: LEKEVQDLTVR, peptide start residue: 69) (UniProt Q8TAA5) | -0.08 |
| UBLCP1 (peptide sequence: EYKVEILNPPREGK, peptide start residue: 124) (UniProt Q8WVY7) | -0.669 |
| TMEM263 (peptide sequence: VTGGIFSVTK, peptide start residue: 38) (UniProt Q8WUH6) | -0.151 |
| CCDC12 (peptide sequence: NYVPEDEDLKK, peptide start residue: 61) (UniProt Q8WUD4) | 0.243 |
| UniProt Q8TF30 (peptide sequence: SLDEDDLGPR, peptide start residue: 263) | 0.199 |

Part of the list above in a different format:
Target	log2 fold change
TBC1D15 (peptide sequence: YVVLCESPQDKR, peptide start residue: 180) (UniProt Q8TC07)	-0.301
UniProt Q8TA94 (peptide sequence: AFSYHHSFQSR, peptide start residue: 149)	-0.699
